Assay: Redox activation of OVA^qRAS by GSH or DTT (fluorescence spectra)
Conditions: GSH 5 mM, 1 hr, PBS

B1: OVA^qRAS: Ovalbumin labeled by qRAS (conjugate, UniProt P01012 2-386, looked up)
Ovalbumin: GSIGAASMEFCFDVFKELKVHHANENIFYCPIAIMSALAMVYLGAKDSTRTQINKVVRFDKLPGFGDSIEAQCGTSVNVHSSLRDILNQITKPNDVYSFSLASRLYAEERYPILPEYLQCVKELYRGGLEPINFQTAADQARELINSWVESQTNGIIRNVLQPSSVDSQTAMVLVNAIVFKGLWEKAFKDEDTQAMPFRVTEQESKPVQMMYQIGLFRVASMASEKMKILELPFASGTMSMLVLLPDEVSGLEQLESIINFEKLTEWTSSNVMEERKIKVYLPRMKMEEKYNLTSVLMAMGITDVFSSSANLSGISSAESLKISQAVHAAHAEINEAGREVVGSAEAGVDAASVSEEFRADHPFLFCIKHIATNAVLFFGRCVSP
modifications: qRAS label
increase of emission intensity of TMR (fluorescence activation ratio): 30 fold

From patent US20210333263A1, “REDOX ACTIVATABLE FLUORESCENT SENSORS” (The Board of Regents of the University of Texas System, priority 2016, published 2021)
